Data reported in PubChem BioAssay AID2551 (National Center for Advancing Translational Sciences (NCATS), 2010).
Out of some 310,000 compounds screened, about 17,000 (5.5%) were called active. The inconclusive results got no clear call from the source; some entries with a clear call stand among them for comparison. Calls come from the whole dose curve; as a rule, active = well fitted inhibition curve with a large enough effect; inconclusive = small, poorly fitted or top-dose-only effect, or effect the other way; inactive = no such curve, though single readings can be large or run the other way. Potencies of inconclusive entries are doubtful fits and often do not repeat.
% is set by controls: 0 for no effect and ±100 for the full control effect; potency is the fitted concentration of half-maximal effect.
Note: nearly all actives have a fitted effect of over 60% in size.

Chains of the proteins cited; added tags and fusions are not shown. Lines headed by an entry give the natural chain unless they say otherwise; changes in a name come on top.
UniProt P51450: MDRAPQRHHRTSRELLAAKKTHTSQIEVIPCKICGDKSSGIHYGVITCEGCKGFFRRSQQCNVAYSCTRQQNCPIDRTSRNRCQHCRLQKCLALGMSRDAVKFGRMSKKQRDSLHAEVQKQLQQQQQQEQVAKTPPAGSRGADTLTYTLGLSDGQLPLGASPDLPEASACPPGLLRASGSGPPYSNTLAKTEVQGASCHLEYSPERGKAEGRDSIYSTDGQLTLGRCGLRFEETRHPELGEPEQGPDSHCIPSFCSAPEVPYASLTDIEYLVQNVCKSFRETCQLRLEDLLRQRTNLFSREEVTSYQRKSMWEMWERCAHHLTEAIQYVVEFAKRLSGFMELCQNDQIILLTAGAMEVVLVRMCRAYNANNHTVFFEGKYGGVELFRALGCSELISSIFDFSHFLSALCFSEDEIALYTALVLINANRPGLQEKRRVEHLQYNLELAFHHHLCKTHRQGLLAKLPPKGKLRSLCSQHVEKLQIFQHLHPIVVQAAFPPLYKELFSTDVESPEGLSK

The compounds below were run against Nuclear receptor ROR-gamma (Mus musculus) (UniProt P51450) (assay: qHTS for inhibitors of ROR gamma transcriptional activity). Details: Drosophila S2 Gal4-RORgamma UAS-luciferase reporter, 20 h; activity change, negative = inhibition: at 53.6 µM (top of the series).
Summary of the method: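 Luciferase reporter read in Schneider cells carrying Gal4-RORγ (mouse) and UAS-Photinus luciferase; cells given compound 1 h before 700 uM copper sulfate induction, then incubated 20 h at ambient temperature.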
`CCOc1ccc(CN(C(=O)c2cc(=O)c3cc(C)cc(C)c3o2)C2CCS(=O)(=O)C2)cc1` (centres undefined) was tested, and the “activity change, negative = inhibition” value was inactive: 2.63%.
For `CCCC[C@H]1C[C@@H]1[C@@H]1N(P(=O)(c2ccccc2)c2ccccc2)C[C@@](O)(c2ccccc2)CC12CC2`, the Potency was inconclusive: 15.8 µM [inhibitor, single point].
With `COc1cc(CN2CCCC(C(=O)c3ccc4c5c(cccc35)CC4)C2)cc(OC)c1O` (centres undefined) the Potency was inconclusive: 28.2 µM [inhibitor, single point].
`CCOC(=O)N1CCN(c2c(N3CCN(c4ccc(OC)cc4)CC3)c(=O)c2=O)CC1` was tested, and the Potency was inconclusive: 20 µM [inhibitor, single point].
For `Cc1cc(Cl)ccc1Oc1nc(-c2ccccc2)ncc1S(C)(=O)=O`, the Potency was inconclusive: 6.31 µM [inhibitor, partial curve, poor fit].
`CC(C)(C)c1ccc(C(=S)N2CCN(c3ccccc3)CC2)cc1` was tested, and the Potency was inconclusive: 10 µM [inhibitor, partial curve].
With `Cc1cnc(NC(=O)c2cc3ccccc3o2)s1` the Potency was active: 6.31 µM.
In the case of `CCCN(C(=O)c1cc2c(s1)CCC2)c1c(N)n(Cc2ccccc2)c(=O)[nH]c1=O`, the “activity change, negative = inhibition” value is reported as inactive: 4.11%.
`COC(=O)[C@H](CCSC)NC(=O)N1CCN(c2cccc(C(F)(F)F)c2)CC1` was tested, and the Potency was inconclusive: 1.41 µM [activator, single point].
In the case of `CCOc1ccc(Br)cc1S(=O)(=O)Nc1ccc(Cl)c(S(=O)(=O)N(CC)c2ccccc2)c1`, the Potency is reported as inconclusive: 15.8 µM [activator, single point].
In the case of `COCCNC(=O)c1nn2c(C(F)(F)F)cc(-c3ccccc3)nc2c1Cl`, the Potency is reported as inconclusive: 2.24 µM [activator, full curve, poor fit].
In the case of `COc1cc(-n2c(C)nc3cc(C(=O)NCc4ccco4)ccc32)cc(OC)c1OC`, the “activity change, negative = inhibition” value is reported as inactive: -10.6%.
In the case of `O=C(c1ccccc1)c1sc(N2CCCCCC2)nc1-c1ccccc1`, the “activity change, negative = inhibition” value is reported as inactive: -3.27%.
`Cc1nnc(N/N=C/c2ccc(-c3ccc(Br)cc3)o2)n1N` was tested, and the Potency was active: 3.16 µM.
In the case of `Cc1cc(OCCCC(=O)Nc2cccc(-n3cnnn3)c2)ccc1Cl`, the Potency is reported as inconclusive: 14.1 µM [activator, single point].
With `O=C(Nc1ccc(N2CCOCC2)cc1)C1(c2ccc(Cl)cc2)CCC1` the Potency was inconclusive: 7.08 µM [activator, partial curve].
In the case of `O=C(/C=C/Nc1ccccc1Br)c1ccccn1`, the Potency is reported as inconclusive: 7.08 µM [inhibitor, full curve, poor fit].
With `CCOC(=O)C1CCN(C(=O)c2sc3ncnc(N4CCC(C)CC4)c3c2C)CC1` the Potency was inconclusive: 7.08 µM [activator, partial curve, poor fit].
For `CCOC(=O)N1CCN([N+]([O-])=NOc2cc(O/N=[N+](\[O-])N(CC)CC)c([N+](=O)[O-])cc2[N+](=O)[O-])CC1`, the “activity change, negative = inhibition” value was inactive: 39.1%.
`NC(=O)c1c(NC(=O)CSc2nnc(-c3ccco3)n2-c2ccccc2)sc2c1CCC2` was tested, and the Potency was inconclusive: 6.31 µM [activator, partial curve].
With `N#Cc1ccc(S(=O)(=O)N2CCCN(c3nc4ccc(Cl)cc4s3)CC2)cc1` the Potency was inconclusive: 11.2 µM [activator, partial curve].
In the case of `CCCCCCOc1ccc(OC(=O)c2ccncc2)cc1`, the Potency is reported as inconclusive: 35.5 µM [activator, single point].
For `COc1ccc(C(=O)OCc2nc(N)nc(Nc3ccccc3C)n2)cc1OC`, the Potency was active: 17.8 µM.
For `Cc1cccc(CS(=O)(=O)c2ncc(Cl)c(C(=O)Nc3c(C)cccc3C)n2)c1`, the Potency was inconclusive: 35.5 µM [inhibitor, single point].
`Cc1ccn2c(NC(=O)c3ccccc3)c(-c3ccccc3)nc2c1` was tested, and the Potency was inconclusive: 3.55 µM [inhibitor, partial curve].
In the case of `O=C(Cn1nnc(-c2ccccc2)n1)N/N=C/c1ccc(-c2ccc(Cl)cc2)o1`, the Potency is reported as active: 7.08 µM.
With `CC1CN(c2cc(-c3ccccc3)c3ccccc3n2)CC(C)O1` (centres undefined) the “activity change, negative = inhibition” value was inactive: 14.4%.
With `CC(CC(=O)Nc1ccc2c(c1)OCCO2)c1ccccc1` (centres undefined) the Potency was inconclusive: 5.62 µM [activator, single point].
`C=CCn1c(SCc2csc(C)n2)nc2scc(-c3ccc(C)o3)c2c1=O` was tested, and the Potency was inconclusive: 35.5 µM [inhibitor, single point].
With `COc1cc([N+](=O)[O-])ccc1NC(=O)CSc1nccn1C` the “activity change, negative = inhibition” value was inactive: 2.24%.
For `Brc1ccc(OCCOCCN2CCOCC2)cc1`, the Potency was inconclusive: 6.31 µM [inhibitor, single point].
`NCC[C@H](O)C(=O)N[C@@H]1C[C@H](N)[C@@H](O[C@H]2O[C@H](CN)CC[C@H]2N)[C@H](O)[C@H]1O[C@H]1O[C@H](CO)[C@@H](O)[C@H](N)[C@H]1O` was tested, and the “activity change, negative = inhibition” value was inactive: 5.71%.
In the case of `CCOC(=O)c1c(C)oc2c1C(=O)c1ccccc1C2=O`, the Potency is reported as inconclusive: 2.51 µM [inhibitor, full curve, poor fit].
`COc1cc2c(cc1NC(=S)Nc1cccc3ccccc13)oc1ccccc12` was tested, and the Potency was active: 10 µM.
`CNC(=S)NNc1nc(N2CCOCC2)nc(N2CCOCC2)n1` was tested, and the “activity change, negative = inhibition” value was inactive: -0.614%.
For `O=C(Nc1ccc(F)cc1)N1CCN(c2ncccn2)CC1`, the “activity change, negative = inhibition” value was inactive: 14.6%.
For `Cc1nc2ccccn2c1C(=O)NC1CCCc2ccccc21` (centres undefined), the Potency was inconclusive: 31.6 µM [inhibitor, single point].
With `CN(CCNC(=O)CCCOc1cc(=O)n(C)c2ccccc12)Cc1ccccc1` the Potency was inconclusive: 20 µM [inhibitor, single point].
`Cc1cnc(SCCc2ccncc2)nc1C` was tested, and the Potency was active: 12.6 µM.
`O=C(CSCc1cnn(-c2ccccc2)c1-n1cccc1)NCc1ccccn1` was tested, and the Potency was inconclusive: 35.5 µM [inhibitor, single point].
With `CCOc1ccccc1NC(=O)NCCc1c[nH]c2ccccc12` the “activity change, negative = inhibition” value was inactive: 34.6%.
For `O=C(Nc1ccncc1)c1cn(-c2ccccc2)nc1-c1cccs1`, the “activity change, negative = inhibition” value was inactive: 19.9%.
`O=C([C@H](Cc1ccccc1)NS(=O)(=O)c1ccc(Cl)cc1)N1CC[C@@]2(O)CCCC[C@H]2C1` was tested, and the Potency was inconclusive: 35.5 µM [activator, single point].
In the case of `O=C(Cc1cccs1)OCC(=O)c1ccco1`, the activity change, negative = inhibition is reported as inactive: 0.368% [at 10 µM].
